## Results of single-concentration screens

Each number is a percent effect as filed. The record does not define 0% and 100%; most values in the screen are far below 50% and negative numbers occur (in some assays of this library far below -100). Compounds were drawn at random from those tested, without regard to their results.

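Assay of Toxoplasma gondii numbers, read through their beta-galactosidase reporter with a colour substrate. Concentration: 10 µM. Higher reads as fewer parasites (inferred from which compounds were picked for retests). Of about 67,000 compounds tested this way, about 260 (0.38%) reached 50% or more in at least one test.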

SMILES: Cl.c1cc(CNc2cnc(C3CCCN3)cn2)ccn1 (configuration not stated)
percent effect: 0.9904%

SMILES: Cc1ncnc2c1CCN(CC(=O)N(C)C)CC2.O=C(O)C(F)(F)F
percent effect: -10.21%

SMILES: [H][C@@]12CCN(Cc3scnc3C)C[C@]1(c1nnc(C)o1)CCO2
percent effect: -34.09%

SMILES: Cc1cc(C)nc(N2CCC(c3noc(C)n3)CC2)n1
percent effect: 13.48%

SMILES: COCCC1COC2(CCN(C(=O)c3ccsc3)CC2)C1 (configuration not stated)
percent effect: -14.49%

SMILES: COc1ccccc1-c1ncc(CN2C[C@H](O)[C@@H](N3CCCC3)C2)s1
percent effect: 4.414%

SMILES: c1cc(CCN2CCC(NCc3ccsc3)CC2)ccn1
percent effect: -0.05774%

SMILES: COC(=O)C(C)CN(C)S(=O)(=O)c1c(Br)cc2[nH]c(=O)oc2c1Cl (configuration not stated)
percent effect: 0.5618%

SMILES: CC(=O)NCC1CCCN(Cc2nc(Cc3ccccc3F)no2)C1 (configuration not stated)
percent effect: 28.92%

SMILES: O=C(CCc1nnc2ccccn2c1=O)NCc1ccco1
percent effect: -23.71%

SMILES: Cc1ccccc1C1(C(=O)NCCN2CCCC(C)C2)CCOCC1 (configuration not stated)
percent effect: -19.72%

SMILES: O=C(O)C(F)(F)F.O=C1COC2(CCN(c3ncccn3)CC2)CN1Cc1ccccn1
percent effect: 2.243%

SMILES: [H][C@@]12CCN(CC3CCOCC3)[C@]1([H])CC[C@H](c1nnc(C)o1)O2
percent effect: 9.882%

SMILES: COCCN1C(=O)C2(CCN(CC3CC3)CC2)c2ccccc21.O=C(O)C(F)(F)F
percent effect: -25.55%

SMILES: Cn1cc(C(=O)NCc2cn3c(n2)CN(CC2CCOCC2)CC3)cn1.O=C(O)C(F)(F)F
percent effect: -0.1151%

SMILES: CC(C)CCN(C)Cc1nc2c(cnn2C)c(=O)[nH]1
percent effect: -9.39%

SMILES: CCNC(=O)C1CCN(c2cc(-c3ccccc3)nc3cc(C)nn23)C1 (configuration not stated)
percent effect: 1.679%

SMILES: COc1cccc(CN2CCCC3(CCN(C(=O)N4CCCC4)C3)C2)c1.O=C(O)C(F)(F)F (configuration not stated)
percent effect: -21.49%

SMILES: COc1ccc(NC(=O)N(C)Cc2ccsc2)cn1
percent effect: 0.1893%

SMILES: COc1cc(C(=O)N2CCCC(c3cc(C)[nH]n3)C2)cc(OC)c1C (configuration not stated)
percent effect: 23.06%

SMILES: Cc1cccc(NC(=O)CNC(=O)Cn2ncc(Cl)c(Cl)c2=O)c1C
percent effect: -22.16%

SMILES: C=C(C)CNc1nc(CS(=O)(=O)c2ccccc2)cs1
percent effect: 3.269%

SMILES: CCc1nnc2n1CCN(CCC(=O)Nc1cc(C)on1)C2
percent effect: 1.853%

SMILES: O=C(CCN1CCc2cncnc2C1)N1CCc2sccc2C1
percent effect: -18.16%

SMILES: c1csc(-c2nc(CN3CCOC(Cn4cncn4)C3)co2)c1 (configuration not stated)
percent effect: -0.8616%

SMILES: CSc1nc2ccsc2c(=O)n1CC(=O)N(C)C1CCCCC1
percent effect: 9.622%

SMILES: COc1ccnc(N2CCN(C(=O)c3cnn(C)c3C3CC3)CC2)n1
percent effect: 2.924%

SMILES: CC1(C)CC(CN2CCC3(CCC(=O)N(CCO)C3)CC2)CCO1 (configuration not stated)
percent effect: 0.02614%

SMILES: NC(=O)C1CCN(C(=O)C2SCCc3sccc32)CC1 (configuration not stated)
percent effect: 1.554%

SMILES: Cc1nc(C)n(Cc2cccc(NC(=O)N(C)CCC(C)O)c2)n1 (configuration not stated)
percent effect: 1.2%

SMILES: O=C(Cc1ccncc1)N1CCC2(CC1)CC(c1ccccc1)CO2.O=C(O)C(F)(F)F (configuration not stated)
percent effect: -0.3318%

SMILES: CC(NCc1ccc(F)cc1)c1ccc(OCC(=O)NC2CC2)cc1 (configuration not stated)
percent effect: 3.993%

SMILES: O=C(O)C(F)(F)F.[H][C@]12C[C@@H](Cn3cncn3)N(C(C)C)[C@@]1([H])CCN(Cc1ccsc1)C2
percent effect: -31.74%

SMILES: COc1ccc(NC(=O)NCC(O)c2ccc(F)cc2F)c(OC)c1 (configuration not stated)
percent effect: -5.456%

SMILES: CN1CCc2nc(C3CCCN(C(=O)CC4CCCCC4)C3)ncc2C1 (configuration not stated)
percent effect: 1.35%

SMILES: Cl.Cl.OC(CN1CCN(Cc2ccc(F)cc2)CC1)C1CC1 (configuration not stated)
percent effect: -0.4379%

SMILES: O=C1NCCN1CCNc1cc(-c2ccccc2)nc2ccnn12
percent effect: 2.009%

SMILES: O=C(CNC1(CCO)CCOCC1)Nc1ccc(F)cc1F
percent effect: 2.879%

SMILES: Cc1cnc(CN2CCCC(c3cc(C(N)=O)[nH]n3)C2)o1 (configuration not stated)
percent effect: -1.551%

SMILES: CC(=O)c1ccc(C(=O)N2C[C@@H](CN3CCCC3)[C@@H](CO)C2)cc1
percent effect: -0.9377%

SMILES: Cc1noc(C)c1CCC(=O)NCC1(O)CCN(c2ccccn2)C1 (configuration not stated)
percent effect: 2.113%

The last 3 entries again:

SMILES	percent effect
Cc1cnc(CN2CCCC(c3cc(C(N)=O)[nH]n3)C2)o1 (configuration not stated)	-1.551%
CC(=O)c1ccc(C(=O)N2C[C@@H](CN3CCCC3)[C@@H](CO)C2)cc1	-0.9377%
Cc1noc(C)c1CCC(=O)NCC1(O)CCN(c2ccccn2)C1 (configuration not stated)	2.113%

The values are deposited in ChEMBL (CHEMBL3988442, “University of Dundee, Small-Polar-MMV Screening Library” (2021)).